Measured values taken from US12637369B2, “Method for selectively removing perfluorinated compounds with electrooxidation” (SK hynix Inc., priority 2021, dated 2026).

Test: Evaluation of selective removal efficiency of perfluorinated compound from semiconductor wastewater

O=S(=O)(O)C(F)(F)C(F)(F)C(F)(F)C(F)(F)F [PFBS, Perfluorobutane sulfonic acid]
removal rate as the BV increases (Comparative Example using only adsorption by activated carbon (FIGS. 7A, 7B)): decreased
removal rate (Comparative Example: general activated carbon tank (adsorption only), same relative flow rate as long-term Example): about 50%
removal rate (Example device, long-term operation, about 1,000,000 L or more influent, relative flow rate about 2,400 times the GAC volume): ≥ 99%
removal rate (Example: adsorption electrooxidation device, semiconductor wastewater, GAC 500 L, 1000 L/hr, 7 to 12 V, 25 A, BV up to a test time point (FIG. 7B)): 100%
